Publication PMC7462607 (eLife, 2020)
Some peptides are written in HELM: one residue between dots, names in brackets for other building blocks, links after the first $.

Assay: peptide made by a vendor
Conditions: whole synthesis

For “PEPTIDE1{I.L.P.K.V.L.H.K.R.T.L.G.L.S}$$$$V2.0”, the “purity (crude or final not stated)” value was 96%.
